Laboratory results: doi:10.1101/247882 (bioRxiv, 2018)
Results are given in words; binding and its absence hold for the method and conditions named. Binding calls can cover weak binding; strength is not graded here.

Target: T1, Synechocystis OCP with amino acid substitutions Y201A and W288A, holoprotein (Synechocystis sp. PCC 6803) (UniProt P74102)
T1 sequence: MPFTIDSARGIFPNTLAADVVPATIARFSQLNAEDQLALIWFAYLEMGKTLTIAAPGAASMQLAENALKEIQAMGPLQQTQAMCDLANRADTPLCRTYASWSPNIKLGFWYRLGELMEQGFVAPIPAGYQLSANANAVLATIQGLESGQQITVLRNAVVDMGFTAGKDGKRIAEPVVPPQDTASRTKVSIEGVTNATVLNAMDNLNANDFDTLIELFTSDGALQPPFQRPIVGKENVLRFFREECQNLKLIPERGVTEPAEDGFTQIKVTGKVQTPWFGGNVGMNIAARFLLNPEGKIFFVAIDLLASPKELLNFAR
Assay: SEC

Row | Substance | binding
1 | Arthrospira maxima FRP (from UniProt B5W3T4) | binds
2 | Anabaena variabilis FRP (from UniProt Q3M6D9) | binds
